Laboratory results taken from the supplement of paper PMC11542785.
Structures can show the parent of a compound that is named as a salt. This is one part of the list. Repeats are few or missing, and single values can be far off.

Test system: Drosophila melanogaster DPAGT1 (Alg7) RNAi eye model
Assay: eye size Z-score vs DMSO-treated DPAGT1 model flies; higher = larger eye (suppression of DPAGT1 phenotype)
Details: 5 uM

Row | SMILES | eye size Z-score (female) | eye size Z-score
1 | CN(Cc1ccc(C(C)(C)C)cc1)Cc1cccc2ccccc12 [Butenafine hydrochloride] | 0.64 | –
2 | COc1cc(NS(=O)(=O)c2ccc(N)cc2)nc(OC)n1 [Sulfadimethoxine] | – | -0.87
3 | CC[N+](CC)(CC(=O)Nc1c(C)cccc1C)Cc1ccccc1 [Denatonium benzoate] | – | 0.88
4 | CC1(C)O[C@@H]2[C@@H](CO[C@@]3(COS(N)(=O)=O)OC(C)(C)O[C@@H]23)O1 [Topiramate] | – | -0.16
5 | CN(C)c1cc(NC(=O)CNC(C)(C)C)c(O)c2c1C[C@H]1C[C@H]3[C@H](N(C)C)C(O)=C(C(N)=O)C(=O)[C@@]3(O)C(O)=C1C2=O [Tigecycline] | – | 0.43
6 | Cc1cccc(Nc2ccncc2S(=O)(=O)NC(=O)NC(C)C)c1 [Torsemide] | – | 0.82
7 | NC(=O)N1c2ccccc2CC(=O)c2ccccc21 [Oxcarbazepine] | – | -0.7
8 | CC(C)Cn1cnc2c(N)nc3ccccc3c21 [Imiquimod] | – | -0.69
9 | CC(=O)N[C@@H](CCC(N)=O)C(=O)O [Acetyl-L-glutamine] | – | -0.87
10 | CN(C)CC/C=C1\c2ccccc2CSc2ccccc21 [Dosulepin hydrochloride] | – | 1.23
11 | CC(N)(Cc1ccc(O)c(O)c1)C(=O)O (stereo not drawn) [(L) Methyldopa] | – | 0.02
12 | CC(C)(Oc1ccc(Cl)cc1)C(=O)O [Clofibric acid] | – | 0.48
13 | Cn1c(=O)c2c(ncn2CC(=O)O)n(C)c1=O [Acefylline] | – | 0.44
14 | O=C(O)C1CSCN1 (stereo not drawn) [Timonacic] | – | 0.33
15 | CO[C@H]1C[C@H](O[C@H]2[C@H](C)[C@@H](O[C@@H]3O[C@H](C)C[C@H](N(C)C)[C@H]3OC(C)=O)[C@@H](C)C[C@@]3(CO3)C(=O)[C@H](C)[C@@H](OC(C)=O)[C@@H](C)[C@@H](C)OC(=O)[C@@H]2C)O[C@@H](C)[C@@H]1OC(C)=O [Troleandomycin] | – | 0.69
16 | Cc1cc(C(=O)NNCc2ccccc2)no1 [Isocarboxazid] | – | 1.11
17 | COc1cc(OC)c(C(=O)CCCN2CCCC2)c(OC)c1 [Buflomedil hydrochloride] | -0.47 | –
18 | N#CC(c1ccc(Cl)cc1)c1c(Cl)cc(-n2ncc(=O)[nH]c2=O)cc1Cl (stereo not drawn) [Diclazuril] | – | 0.05
19 | CNC(=O)OCc1cccc(COC(=O)NC)n1 [Pyricarbate] | – | 0.24
20 | CCN1C(=O)NC(c2ccccc2)C1=O (stereo not drawn) [Ethotoin] | – | 0.14
21 | CN1CCC(=C2c3ccccc3CC(=O)c3sccc32)CC1 [Ketotifen fumarate] | – | -0.69
22 | COc1ccccc1N1CCN(CC(O)COc2cccc3ccccc23)CC1 (stereo not drawn) [Naftopidil dihydrochloride] | – | 1.61
23 | CN1CCCC(CC2c3ccccc3Sc3ccccc32)C1 (stereo not drawn) [Metixene hydrochloride] | – | -0.06
24 | COc1ccc2c(c1)N(C[C@H](C)CN(C)C)c1ccccc1S2 [Methotrimeprazine maleate salt] | – | 0.28
25 | CC(COc1ccccc1)NN (stereo not drawn) [Phenoxypropazine dihydrochloride] | – | 0.25

Row | SMILES | eye size Z-score (female) | eye size Z-score
26 | CCCN(CCC)C(=O)C(CCC(=O)O)NC(=O)c1ccccc1 (stereo not drawn) [Proglumide] | – | 1.1
27 | CC(C)(Sc1cc(C(C)(C)C)c(O)c(C(C)(C)C)c1)Sc1cc(C(C)(C)C)c(O)c(C(C)(C)C)c1 [Probucol] | 0.56 | –
28 | CS(=O)(=O)CCNCc1ccc(-c2ccc3ncnc(Nc4ccc(OCc5cccc(F)c5)c(Cl)c4)c3c2)o1 [Lapatinib] | – | -0.98
29 | Cn1ccnc1S [Methimazole] | 0 | –
30 | Nc1c(Br)cc(Br)cc1CN[C@H]1CC[C@H](O)CC1 [Ambroxol hydrochloride] | – | -0.61
31 | CCC(=O)c1ccc(O)cc1 [Paroxypropione] | – | 0.76
32 | O=c1cc(-c2ccc(O)c(O)c2)oc2cc(O)cc(O)c12 [Luteolin] | – | 0.27
33 | CC(C)(C(=O)c1cccnc1)c1cccnc1 [Metyrapone] | – | -1.13
34 | CC(C)(S)C(N)C(=O)O (racemic) [D,L-Penicillamine] | – | 0.22
35 | CC(=O)N(O)CCCCCNC(=O)CCC(=O)N(O)CCCCCNC(=O)CCC(=O)N(O)CCCCCN [Deferoxamine mesylate] | – | 0.52
36 | CC(C)/N=c1\cc2n(-c3ccc(Cl)cc3)c3ccccc3nc-2cc1Nc1ccc(Cl)cc1 [Clofazimine] | – | 0.96
37 | O=C1Cc2cc(CCN3CCN(c4nsc5ccccc45)CC3)c(Cl)cc2N1 [Ziprasidone  hydrochloride monohydrate] | – | 0.61
38 | CCCC(=O)N1CCCN(c2nc(N)c3cc(OC)c(OC)cc3n2)CC1 [Bunazosin hydrochloride] | – | -0.91
39 | CCN[C@H]1C[C@H](C)S(=O)(=O)c2sc(S(N)(=O)=O)cc21 [Dorzolamide hydrochloride] | – | 0.19
40 | CO[C@@]1(NC(=O)CSCC#N)C(=O)N2C(C(=O)O)=C(CSc3nnnn3C)CS[C@@H]21 [Cefmetazole sodium salt] | – | 0.16
41 | C[C@@H]1[C@H](O)[C@@H](C)/C=C/C=C/C=C/C=C/C=C/C=C/C=C/[C@H](O[C@@H]2O[C@H](C)[C@@H](O)[C@H](N)[C@@H]2O)C[C@@H]2O[C@](O)(C[C@@H](O)C[C@@H](O)[C@H](O)CC[C@@H](O)C[C@@H](O)CC(=O)O[C@H]1C)C[C@H](O)[C@H]2C(=O)O [Amphotericin B] | – | -0.71
42 | CCOC(=O)C(C)(C)Oc1ccc(Cl)cc1 [Clofibrate] | – | 0.23
43 | CC(C)NC[C@H](O)COc1ccc(CC(N)=O)cc1 [(S,-) Atenolol] | – | -0.15
44 | CCC(NC(C)C)C(O)c1ccc(O)c(O)c1 (stereo not drawn) [Isoetharine mesylate salt] | – | 0.47
45 | CCC(Cc1c(I)cc(I)c(N)c1I)C(=O)O (stereo not drawn) [Iopanoic acid] | – | 0.4
46 | CN1CCc2cccc3c2[C@H]1Cc1ccc(O)c(O)c1-3 [R(-) Apomorphine hydrochloride hemihydrate] | – | -0.44
47 | CN1CCN(C2=Nc3cc(Cl)ccc3Nc3ccccc32)CC1 [Clozapine] | – | -1.11
48 | Cc1ccc(-c2ncc(Cl)cc2-c2ccc(S(C)(=O)=O)cc2)cn1 [Etoricoxib] | – | -1.09
49 | CC1CCc2c(N3CCC(O)CC3)c(F)cc3c(=O)c(C(=O)O)cn1c23 (stereo not drawn) [Nadifloxacin] | – | 0.19
50 | Cc1cc(=O)n(-c2ccccc2)n1C [Antipyrine] | – | 1.62

4 entries from above, sorted by count of non-hydrogen atoms, low to high.
Row | SMILES | eye size Z-score (female) | eye size Z-score
34 | CC(C)(S)C(N)C(=O)O (racemic) [D,L-Penicillamine] | – | 0.22
50 | Cc1cc(=O)n(-c2ccccc2)n1C [Antipyrine] | – | 1.62
20 | CCN1C(=O)NC(c2ccccc2)C1=O (stereo not drawn) [Ethotoin] | – | 0.14
17 | COc1cc(OC)c(C(=O)CCCN2CCCC2)c(OC)c1 [Buflomedil hydrochloride] | -0.47 | –

The list continues:

Row | SMILES | eye size Z-score (female) | eye size Z-score
51 | Clc1ccc(COC(Cn2ccnc2)c2ccc(Cl)cc2Cl)c(Cl)c1 (stereo not drawn) [Miconazole] | – | -0.97
52 | NC12CC3CC(CC(C3)C1)C2 [Adamantamine fumarate] | – | 1.31
53 | CN[C@H](CC(C)C)C(=O)N[C@H]1C(=O)N[C@@H](CC(N)=O)C(=O)N[C@H]2C(=O)N[C@H]3C(=O)N[C@H](C(=O)N[C@H](C(=O)O)c4cc(O)cc(O)c4-c4cc3ccc4O)[C@H](O)c3ccc(c(Cl)c3)Oc3cc2cc(c3O[C@@H]2O[C@H](CO)[C@@H](O)[C@H](O)[C@H]2O[C@H]2C[C@](C)(N)[C@H](O)[C@H](C)O2)Oc2ccc(cc2Cl)[C@H]1O [Vancomycin hydrochloride] | – | 0.92
54 | O=C(CCCl)NCc1ccccc1 [Beclamide] | – | 0.44
55 | CNS(=O)(=O)Cc1ccc2[nH]cc(CCN(C)C)c2c1 [Sumatriptan succinate] | – | -0.24
56 | NC(=O)c1ncn([C@@H]2O[C@H](CO)[C@@H](O)[C@H]2O)n1 [Ribavirin] | – | -0.94
57 | CCOC(=O)[C@H](CCc1ccccc1)N[C@@H](C)C(=O)N1[C@H](C(=O)O)C[C@@H]2CCC[C@@H]21 [Ramipril] | – | -0.11
58 | CCOc1ccc2c(c1)C(C)=CC(C)(C)N2 [Ethoxyquin] | – | 0.17
59 | CC(C)COCC(CN(Cc1ccccc1)c1ccccc1)N1CCCC1 (stereo not drawn) [Bepridil hydrochloride] | – | -0.08
60 | O=C(O)c1cc(=O)c2ccccc2o1 [Chromocarb] | – | 1.01
61 | NS(=O)(=O)c1cc(C(=O)O)c(NCc2ccco2)cc1Cl [Furosemide] | – | -0.13
62 | Cc1cc(C2CCCCC2)n(O)c(=O)c1 [Ciclopirox ethanolamine] | – | 1.09
63 | COc1cc(C(=O)NS(=O)(=O)c2ccccc2C)ccc1Cc1cn(C)c2ccc(NC(=O)OC3CCCC3)cc12 [Zafirlukast] | – | 0.18
64 | O=C1NCN(c2ccccc2)C12CCN(CCCC(c1ccc(F)cc1)c1ccc(F)cc1)CC2 [Fluspirilene] | – | -1.02
65 | CC(C)(C)C(=O)OCOC(=O)[C@@H]1N2C(=O)[C@@H](NC(=O)[C@H](N)c3ccccc3)[C@H]2SC1(C)C [Pivampicillin] | – | -0.02
66 | CN(C)C(=O)COC(=O)Cc1ccc(OC(=O)c2ccc(NC(=N)N)cc2)cc1 [Camostat mesylate] | – | 1.41
67 | N=C(N)NC(=O)c1nc(Cl)c(N)nc1N [Amiloride hydrochloride dihydrate] | – | 0.79
68 | CCCCOC(=O)c1ccc(N)cc1 [Butamben] | – | 0.1
69 | N[C@@H]1CCCCN(c2c(F)cc3c(=O)c(C(=O)O)cn(C4CC4)c3c2Cl)C1 [Besifloxacin hydrochloride] | – | 0
70 | CCOc1ccccc1OCC1CNCCO1 (stereo not drawn) [Viloxazine hydrochloride] | – | -0.31
71 | CC[C@H]1OC(=O)[C@H](C)[C@@H](O[C@H]2C[C@@](C)(OC)[C@@H](O)[C@H](C)O2)[C@H](C)[C@@H](O[C@@H]2O[C@H](C)C[C@H](N(C)C)[C@H]2O)[C@](C)(OC)C[C@@H](C)C(=O)[C@H](C)[C@@H](O)[C@]1(C)O [Clarithromycin] | – | 0.03
72 | NC(=O)Cc1cccc(C(=O)c2ccccc2)c1N [Nepafenac] | – | -0.1
73 | CC(C)COC(=O)OCN1C(=O)CN(CCN2CC(=O)N(COC(=O)OCC(C)C)C(=O)C2)CC1=O [Sobuzoxane] | – | -1
